Measured values taken from PMC12040169 (PLOS Biology, 2025).
This is one part of the list.

system: T1, CTL2-GFP (C. trachomatis L2/434/Bu, GFP-expressing); set-up: species or system HeLa; Intracellular C. trachomatis growth in HeLa cells, bulk GFP fluorescence relative to DMSO; details: bulk GFP, single well; 28.5 h, 10 µM; inhibitor
T1 construct: L2/434/Bu, GFP-expressing

Compound	% of control remaining
O=C(COc1ccc2oc3c(c2c1)CCCC3)Nc1ccncc1 [CBK266227]	123.646%
Nc1nc(N)c2ncn([C@H]3C[C@@H](O)[C@@H](CO)O3)c2n1 [CBK201208]	115.207%
CC(C)Nc1nccnc1-c1cccc(O)c1 [CBK037089]	88.6758%
COC(=O)C1=C(C)N=C2SCCC(=O)N2C1c1ccc(C(C)C)cc1 (centres unmarked) [CBK073523]	119.849%
COc1ccc(C(NC(=O)c2c(C)nc3sccn23)C2CC(O)C2)cn1 (centres unmarked) [CBK307330]	72.7919%
CN(C)CCOCc1ncccc1OCCOC1CCCCO1 (centres unmarked) [CBK045662]	103.921%
CC(=O)N1CCC[C@H]2NC(=O)CNC(=O)C3(C/C=C/C[C@H]21)CCN(C(=O)c1cc(C)no1)CC3 [CBK292176]	118.761%
Cc1cccc2c3c([nH]c12)CCN(C(=O)[C@@H]1C[C@@H]2C=C[C@H]1C2)C3 [CBK281656]	126.233%
Cc1cc2ncc(-c3[nH]ncc3[N+](=O)[O-])cn2n1 [CBK269106]	138.36%
Cc1ccc(F)c(CN2CCN(CCO)[C@@H]3CS(=O)(=O)C[C@@H]32)c1 [CBK307699]	126.569%
O=C(N/N=C/c1c[nH]nc1-c1ccccc1)c1cccnc1 [CBK262461]	113.93%
CN(C)CCN(C)c1cncc(-c2ccc3c(c2)OCO3)n1 [CBK065897]	164.439%
Cc1ccc(C(=O)NNC(=S)Nc2ccc(S(N)(=O)=O)cc2)cc1[N+](=O)[O-] [CBK266866]	169.319%
Cc1nccn1CC1(O)CCN(Cc2ccccc2F)CC1 [CBK284961]	138.785%
COc1ccc(F)cc1-c1ccccc1CC1(C(=O)NCc2cccs2)CCOCC1 [CBK286416]	95.4037%
CN(C)C(=O)C1(Cc2ccc(-c3cccs3)cc2)CCN(C(=O)Cc2ccccc2)CC1 [CBK285784]	131.837%
COc1ccc(SCC(=O)O)cc1 [CBK111455]	149.714%
CN1CCCCC[C@@H]2[C@@H]1[C@H](c1ccccc1)CN2C(=O)CN1CCCCCC1=O [CBK285524]	111.875%
O=C1c2ccccc2S(=O)(=O)N1CC(O)Cn1c2ccc(Br)cc2c2cc(Br)ccc21 (centres unmarked) [CBK262347]	94.5647%
COc1ccc(OC)c(C(C)NC(=O)C2CCN(CCc3c[nH]c4ccccc34)CC2)c1 (centres unmarked) [CBK148763]	162.568%
O=C(C1CCCO1)N1CCC(c2ccc(F)cc2)CC1 (centres unmarked) [CBK283484]	137.32%
CC(C)Oc1ccccc1CN(C)C(C)c1ccc(S(N)(=O)=O)cc1 (centres unmarked) [CBK305436]	73.8421%
COc1cccc(CN(Cc2ccco2)Cc2cncn2C)c1 [CBK282497]	125.039%
O=C(Cn1cccc2cc(-c3cccs3)nc1-2)NC1CC1 [CBK281897]	88.4561%
CCn1ncc(Cn2cc(NC(=O)C3CCCCC3C(=O)O)cn2)c1C (centres unmarked) [CBK286859]	122.371%

Compound	% of control remaining
COC(=O)c1ccc(N2C(=O)CC(NCCc3ccc(S(N)(=O)=O)cc3)C2=O)cc1 (centres unmarked) [CBK262859]	107.954%
CC1(C)CN(c2ccc(Cl)cn2)C1=O [CBK018550]	132.563%
O=C1c2ccc(Oc3cccc([N+](=O)[O-])c3)cc2C(=O)N1c1ccccn1 [CBK261190]	91.018%
COCCNC(=O)C1CCCCC1C(=O)O (centres unmarked) [CBK269135]	79.2716%
Cc1cccc(CN(CC(C)(C)CN)C(=O)Nc2ccccc2C(F)(F)F)n1 [CBK002409C]	112.878%
FC(F)(F)c1cccc(-c2cn3ccnc3c(NCCc3ccccn3)n2)c1 [CBK066491]	93.0687%
Cc1c(C(=O)O[C@H]2C[C@@H](c3ccc(F)cc3)N(C)C2=O)cnn1C [CBK283616]	89.0831%
COC(=O)CCc1ccc(S(=O)(=O)N2CCCN(Cc3c[nH]c4ccc(OC)cc34)CC2)cc1 [CBK062985]	151.626%
N=C(N)SCC1CNC(=N)S1 (centres unmarked) [CBK260991]	111.31%
COc1ccc(F)c(CN(CC(C)(C)CN)C(=O)Nc2ccc(C(C)(C)C)cc2)c1 [CBK002461C]	84.943%
Cc1ccc(CN2CCNCC2CCO)o1 (centres unmarked) [CBK269844]	123.622%
COc1cc(/C=N/NC(=O)CCc2c(C)n[nH]c2C)ccc1O [CBK262925]	128.202%
CSc1ccc(SC/C(N)=N/O)cc1 [CBK025411C]	121.612%
CC(CC(=O)N1CCCC(c2cc3cccnc3[nH]2)C1)n1ccnc1 (centres unmarked) [CBK285034]	93.5449%
CCCCSc1nc(N)cc(N2CCCC(C(=O)N3CCOCC3)C2)n1 (centres unmarked) [CBK307210]	113.875%
O=C(c1cccc(S(=O)(=O)N2CCOCC2)c1)N(Cc1ccc(F)cc1)Cc1ccco1 [CBK265885]	125.265%
CCCCNC(=S)NC1CC[C@@]2(Cc3ccc(OC)c(OC)c3)CCN(C)[C@H]2C1 (some centres unmarked) [CBK023805]	147.876%
Cc1ccc(N)c(C(=O)CCC(=O)O)c1 [CBK017815C]	129.722%
CCCn1c(SCC(=O)N2CCN(S(=O)(=O)c3ccc(C)cc3C)CC2)n[nH]c1=O [CBK295590]	103.875%
O=C(Nc1ccccc1C(=O)N1CCOCC1)C1CCN(C(=O)c2ccco2)CC1 [CBK270272]	102.094%
O=C(NCCOc1ccccc1F)C1CC(=O)N(Cc2ccccn2)C1 (centres unmarked) [CBK304632]	102.094%
CC(=O)Nc1ccc(NC(=O)CC2(CC(=O)O)CCCCC2)cc1 [CBK299816]	129.83%
COc1cc2c(cc1OC)CN(/C=N/c1sc3c(c1C#N)CC(C)(C)NC3(C)C)CC2 [CBK262918]	100%
CC(=O)NS(=O)(=O)c1ccc(NC(=O)c2cn(-c3ccccc3)nc2-c2cccs2)cc1 [CBK296125]	135.314%
O=C1CC2(CCCCC2)C(C(=O)O)N1 (centres unmarked) [CBK009895]	118.335%

Individual results from the entries so far.
% of control remaining with COC(=O)c1ccc(N2C(=O)CC(NCCc3ccc(S(N)(=O)=O)cc3)C2=O)cc1 (centres unmarked) [CBK262859] reads 107.954%
% of control remaining with CC(CC(=O)N1CCCC(c2cc3cccnc3[nH]2)C1)n1ccnc1 (centres unmarked) [CBK285034] reads 93.5449%
% of control remaining with Cc1ccc(N)c(C(=O)CCC(=O)O)c1 [CBK017815C] reads 129.722%
